{
  "source": "the supplement of paper PMC8426693",
  "note": "Some of the results follow.",
  "data": [
    {"tested_on": "SARS-CoV-2 5_SL7 RNA", "test": "NMR binding call after quantification (hit when 2 of 3 NMR criteria are met) (binary (1 = binding, 0 = not binding)); higher = binding", "settings": "RNA concentration 10 µM; fragment concentration 200 µM; 293 K", "values": [
      {"compound": "Nc1cc(C(F)(F)F)ccc1N1CCCCC1", "NMR binding call": 0},
      {"compound": "CS(=O)(=O)NCCc1ccccc1", "NMR binding call": 0},
      {"compound": "CC(=O)c1ccc(OCC(=O)O)cc1", "NMR binding call": 0},
      {"compound": "c1nc(CN2CCNCC2)cs1", "NMR binding call": 0},
      {"compound": "Cc1nn(C)c(C)c1CC(N)=O", "NMR binding call": 0},
      {"compound": "CC(C)(C)CC(=O)Nc1ccc(F)cc1F", "NMR binding call": 0},
      {"compound": "O=C(O)c1ccccc1OC(F)(F)F", "NMR binding call": 0},
      {"compound": "CC(=O)N1CCC(N)CC1", "NMR binding call": 0},
      {"compound": "CC(C)C(=O)Nc1ccc(N2CCCCC2)cc1", "NMR binding call": 0},
      {"compound": "Oc1ccccc1-c1nc(-c2ccccc2)no1", "NMR binding call": 0},
      {"compound": "CNC1(C(N)=O)CCCC1", "NMR binding call": 0},
      {"compound": "Cc1ccc(-c2noc(CNC(C)C)n2)cc1", "NMR binding call": 1},
      {"compound": "CNC(=O)c1cnc(C)s1", "NMR binding call": 0},
      {"compound": "Cc1cccc(C(=O)Nc2ccc(C)cc2O)c1", "NMR binding call": 0},
      {"compound": "CC(=O)N1Cc2ccc(N)cc2C1", "NMR binding call": 0},
      {"compound": "CCNC(=O)c1ccc(N(C)C)c(F)c1", "NMR binding call": 0},
      {"compound": "Cc1ccccc1OCC(=O)Nc1ccccc1", "NMR binding call": 0},
      {"compound": "O=C(Cc1ccc(Cl)cc1)Nc1ncccn1", "NMR binding call": 0},
      {"compound": "COc1ccc(Cl)cc1C(=O)NCC(C)C", "NMR binding call": 0},
      {"compound": "COc1ccccc1NC(=O)c1ccc(C)s1", "NMR binding call": 0},
      {"compound": "CC1CCNC(C(N)=O)C1", "note": "(stereo not given)", "NMR binding call": 0},
      {"compound": "O=C(Nc1ccc(N2CCOCC2)cc1)C1CC1", "NMR binding call": 0},
      {"compound": "CC(=O)Nc1cccc(F)c1C(=O)O", "NMR binding call": 0},
      {"compound": "CN(c1ccc(C(N)=O)nn1)C1CCC1", "NMR binding call": 0},
      {"compound": "Nc1ncncc1-c1ccc(Cl)cc1", "NMR binding call": 0},
      {"compound": "CC(C)C(=O)Nc1cccc(C#N)c1", "NMR binding call": 0},
      {"compound": "CCc1nc(C2CCCN2)no1", "note": "(stereo not given)", "NMR binding call": 0},
      {"compound": "Cc1cc2ncn(CC(N)=O)c2cc1C", "NMR binding call": 0},
      {"compound": "O=C(c1c(F)cccc1F)N1CCCC1", "NMR binding call": 0},
      {"compound": "CC(=O)NCCc1ccc(S(N)(=O)=O)cc1", "NMR binding call": 0},
      {"compound": "Cc1cc(F)ccc1CS(N)(=O)=O", "NMR binding call": 0},
      {"compound": "CC1CN(C(=O)c2cnsn2)C(C)CO1", "note": "(stereo not given)", "NMR binding call": 0},
      {"compound": "CCS(=O)(=O)N1CCC(C(=O)O)CC1", "NMR binding call": 0},
      {"compound": "CC1(S(=O)(=O)N2CCC=C(F)C2)CC1", "NMR binding call": 0},
      {"compound": "Cc1cc(NC(=O)CCC2CCCCC2)no1", "NMR binding call": 0},
      {"compound": "O=C(O)COCc1ccccc1", "NMR binding call": 0},
      {"compound": "CC1(C)CN(c2ncccc2F)CC1O", "note": "(stereo not given)", "NMR binding call": 0},
      {"compound": "O=C(Nc1ccc(F)cc1F)Nn1cnnc1", "NMR binding call": 0},
      {"compound": "CCc1nnc(NC(=O)c2cnccn2)s1", "NMR binding call": 0},
      {"compound": "CCC(=O)NCc1nnc2n1CCCC2", "NMR binding call": 0}
    ]}
  ]
}
